Data published in the supplement of paper PMC11732987, “Enantioselective OTUD7B fragment discovery through chemoproteomics screening and high-throughput optimisation” (Communications Chemistry, 2025).
Some of the results follow. The data scatter; read single values as rough.

By UniProt entry, the sequences of proteins in these tests, tags left out. Where a name states a change or a piece, a line headed by the entry shows the natural chain unless it says otherwise. Residues count along the entry.
UniProt Q9NWZ8: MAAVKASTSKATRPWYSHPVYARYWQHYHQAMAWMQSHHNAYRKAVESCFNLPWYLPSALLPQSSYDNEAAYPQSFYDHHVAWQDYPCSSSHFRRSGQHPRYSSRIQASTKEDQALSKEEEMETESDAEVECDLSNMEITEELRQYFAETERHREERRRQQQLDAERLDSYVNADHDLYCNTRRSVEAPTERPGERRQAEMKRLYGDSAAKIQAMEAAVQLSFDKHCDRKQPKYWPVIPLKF
UniProt Q13439: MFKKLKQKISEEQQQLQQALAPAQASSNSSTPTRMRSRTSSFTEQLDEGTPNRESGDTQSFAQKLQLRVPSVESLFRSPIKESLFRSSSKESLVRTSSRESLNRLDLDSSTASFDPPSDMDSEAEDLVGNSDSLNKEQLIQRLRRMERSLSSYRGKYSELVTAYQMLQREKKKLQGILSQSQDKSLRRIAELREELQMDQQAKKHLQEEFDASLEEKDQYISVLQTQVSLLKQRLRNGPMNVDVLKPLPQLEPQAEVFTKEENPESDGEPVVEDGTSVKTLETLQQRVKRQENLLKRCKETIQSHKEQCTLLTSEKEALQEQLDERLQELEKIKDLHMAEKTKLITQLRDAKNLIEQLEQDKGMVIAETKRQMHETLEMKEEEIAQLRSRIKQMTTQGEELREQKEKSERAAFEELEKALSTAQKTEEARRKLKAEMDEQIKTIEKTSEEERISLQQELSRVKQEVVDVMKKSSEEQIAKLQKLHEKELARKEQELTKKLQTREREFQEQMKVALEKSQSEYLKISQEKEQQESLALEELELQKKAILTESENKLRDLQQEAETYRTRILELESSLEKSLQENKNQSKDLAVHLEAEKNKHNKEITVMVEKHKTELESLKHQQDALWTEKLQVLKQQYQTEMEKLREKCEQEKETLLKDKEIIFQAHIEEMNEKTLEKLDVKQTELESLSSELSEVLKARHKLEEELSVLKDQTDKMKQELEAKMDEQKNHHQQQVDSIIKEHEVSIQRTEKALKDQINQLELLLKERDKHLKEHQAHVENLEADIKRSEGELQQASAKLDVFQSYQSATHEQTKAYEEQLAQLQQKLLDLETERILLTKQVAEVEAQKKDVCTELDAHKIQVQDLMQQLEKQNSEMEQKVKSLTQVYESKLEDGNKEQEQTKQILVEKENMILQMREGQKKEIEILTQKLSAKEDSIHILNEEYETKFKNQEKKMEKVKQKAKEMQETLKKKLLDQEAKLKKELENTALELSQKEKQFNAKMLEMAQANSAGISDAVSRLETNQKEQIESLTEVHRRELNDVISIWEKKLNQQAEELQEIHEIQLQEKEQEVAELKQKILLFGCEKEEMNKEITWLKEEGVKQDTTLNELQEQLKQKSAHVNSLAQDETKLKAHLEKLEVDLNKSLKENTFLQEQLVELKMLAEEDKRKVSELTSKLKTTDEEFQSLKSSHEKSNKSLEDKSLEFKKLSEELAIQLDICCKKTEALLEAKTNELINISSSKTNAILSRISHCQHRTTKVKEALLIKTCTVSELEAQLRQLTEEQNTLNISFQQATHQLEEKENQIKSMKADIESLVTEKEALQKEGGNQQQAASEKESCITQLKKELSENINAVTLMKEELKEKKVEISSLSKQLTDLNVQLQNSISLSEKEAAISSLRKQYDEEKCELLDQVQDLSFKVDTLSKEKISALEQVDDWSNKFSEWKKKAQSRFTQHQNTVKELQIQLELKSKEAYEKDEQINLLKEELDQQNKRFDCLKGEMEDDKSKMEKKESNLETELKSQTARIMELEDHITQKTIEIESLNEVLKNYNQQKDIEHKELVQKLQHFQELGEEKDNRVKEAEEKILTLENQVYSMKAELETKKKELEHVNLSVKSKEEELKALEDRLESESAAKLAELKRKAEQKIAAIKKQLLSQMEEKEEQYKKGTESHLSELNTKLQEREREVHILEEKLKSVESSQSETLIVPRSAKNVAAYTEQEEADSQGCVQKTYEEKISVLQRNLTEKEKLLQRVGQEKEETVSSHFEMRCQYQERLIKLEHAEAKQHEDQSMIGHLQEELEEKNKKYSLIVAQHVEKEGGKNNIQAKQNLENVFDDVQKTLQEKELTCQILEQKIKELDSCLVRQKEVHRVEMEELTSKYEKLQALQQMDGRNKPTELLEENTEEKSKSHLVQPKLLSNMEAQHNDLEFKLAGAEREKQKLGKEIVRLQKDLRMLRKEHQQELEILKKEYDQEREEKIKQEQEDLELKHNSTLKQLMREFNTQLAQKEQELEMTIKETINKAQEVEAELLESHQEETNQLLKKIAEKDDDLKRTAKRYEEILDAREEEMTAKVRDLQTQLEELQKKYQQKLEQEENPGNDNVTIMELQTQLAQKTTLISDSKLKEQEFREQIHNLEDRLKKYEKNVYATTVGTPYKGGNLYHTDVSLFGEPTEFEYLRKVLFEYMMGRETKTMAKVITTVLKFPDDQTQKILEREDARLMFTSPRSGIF
UniProt Q08379, 189-208: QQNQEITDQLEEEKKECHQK
UniProt Q8NEC7: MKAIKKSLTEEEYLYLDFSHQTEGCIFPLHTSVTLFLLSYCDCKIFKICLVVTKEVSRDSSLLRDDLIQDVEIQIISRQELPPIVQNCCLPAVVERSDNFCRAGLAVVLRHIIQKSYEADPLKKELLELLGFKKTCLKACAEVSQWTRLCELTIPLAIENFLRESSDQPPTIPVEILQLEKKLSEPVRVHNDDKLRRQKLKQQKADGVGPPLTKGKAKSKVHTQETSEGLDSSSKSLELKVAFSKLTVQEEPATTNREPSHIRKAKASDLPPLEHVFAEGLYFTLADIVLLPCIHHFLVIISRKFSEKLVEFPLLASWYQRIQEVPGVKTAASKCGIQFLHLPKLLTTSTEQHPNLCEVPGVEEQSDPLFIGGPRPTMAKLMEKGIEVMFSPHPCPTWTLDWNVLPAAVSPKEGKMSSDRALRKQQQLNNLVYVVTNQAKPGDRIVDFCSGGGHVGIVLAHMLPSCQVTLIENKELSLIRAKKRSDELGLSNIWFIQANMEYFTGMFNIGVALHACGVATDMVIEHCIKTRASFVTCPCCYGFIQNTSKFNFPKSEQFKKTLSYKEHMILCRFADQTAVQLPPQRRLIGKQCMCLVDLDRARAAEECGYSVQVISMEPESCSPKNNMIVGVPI
UniProt P43304: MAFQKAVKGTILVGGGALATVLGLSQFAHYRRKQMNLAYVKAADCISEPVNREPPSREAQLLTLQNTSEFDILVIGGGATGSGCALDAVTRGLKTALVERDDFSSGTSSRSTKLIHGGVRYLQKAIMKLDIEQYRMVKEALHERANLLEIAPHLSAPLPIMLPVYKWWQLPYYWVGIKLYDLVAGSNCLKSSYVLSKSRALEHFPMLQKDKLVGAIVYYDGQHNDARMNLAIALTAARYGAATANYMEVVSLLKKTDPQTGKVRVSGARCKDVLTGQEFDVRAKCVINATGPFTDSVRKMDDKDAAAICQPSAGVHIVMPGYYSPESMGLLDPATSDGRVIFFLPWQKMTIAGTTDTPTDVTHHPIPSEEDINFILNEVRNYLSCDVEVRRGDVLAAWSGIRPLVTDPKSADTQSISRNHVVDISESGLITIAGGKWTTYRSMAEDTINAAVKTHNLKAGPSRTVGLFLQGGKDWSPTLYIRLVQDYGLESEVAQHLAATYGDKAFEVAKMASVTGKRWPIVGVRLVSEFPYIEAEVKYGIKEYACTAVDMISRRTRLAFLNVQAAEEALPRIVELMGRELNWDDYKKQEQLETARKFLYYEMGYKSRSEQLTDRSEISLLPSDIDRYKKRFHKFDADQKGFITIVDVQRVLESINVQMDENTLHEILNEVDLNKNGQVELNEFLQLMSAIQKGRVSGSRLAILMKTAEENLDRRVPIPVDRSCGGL
UniProt Q8TAA5: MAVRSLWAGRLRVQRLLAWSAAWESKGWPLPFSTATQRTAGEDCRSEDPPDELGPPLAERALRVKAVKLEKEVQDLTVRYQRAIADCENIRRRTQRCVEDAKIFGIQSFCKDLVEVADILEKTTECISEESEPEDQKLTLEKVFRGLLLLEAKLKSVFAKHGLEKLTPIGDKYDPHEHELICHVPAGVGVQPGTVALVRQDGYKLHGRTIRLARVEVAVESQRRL
UniProt Q86YR5: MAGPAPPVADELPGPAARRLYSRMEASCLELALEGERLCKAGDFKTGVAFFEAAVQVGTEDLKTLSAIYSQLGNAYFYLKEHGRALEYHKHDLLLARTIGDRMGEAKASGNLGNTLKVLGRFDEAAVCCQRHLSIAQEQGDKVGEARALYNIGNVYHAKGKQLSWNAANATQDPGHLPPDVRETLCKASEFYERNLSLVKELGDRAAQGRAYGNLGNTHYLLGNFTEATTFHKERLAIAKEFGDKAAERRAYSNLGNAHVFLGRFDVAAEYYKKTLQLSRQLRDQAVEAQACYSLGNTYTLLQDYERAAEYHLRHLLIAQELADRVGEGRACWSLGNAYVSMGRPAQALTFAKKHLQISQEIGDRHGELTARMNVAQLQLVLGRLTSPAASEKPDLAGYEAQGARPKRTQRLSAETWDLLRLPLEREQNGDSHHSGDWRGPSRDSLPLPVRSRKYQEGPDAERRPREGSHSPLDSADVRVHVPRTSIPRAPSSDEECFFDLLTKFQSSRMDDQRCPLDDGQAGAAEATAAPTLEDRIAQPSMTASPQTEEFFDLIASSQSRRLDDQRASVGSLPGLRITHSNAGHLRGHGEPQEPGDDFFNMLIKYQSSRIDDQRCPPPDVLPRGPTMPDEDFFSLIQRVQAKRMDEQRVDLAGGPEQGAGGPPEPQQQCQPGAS
UniProt P04899: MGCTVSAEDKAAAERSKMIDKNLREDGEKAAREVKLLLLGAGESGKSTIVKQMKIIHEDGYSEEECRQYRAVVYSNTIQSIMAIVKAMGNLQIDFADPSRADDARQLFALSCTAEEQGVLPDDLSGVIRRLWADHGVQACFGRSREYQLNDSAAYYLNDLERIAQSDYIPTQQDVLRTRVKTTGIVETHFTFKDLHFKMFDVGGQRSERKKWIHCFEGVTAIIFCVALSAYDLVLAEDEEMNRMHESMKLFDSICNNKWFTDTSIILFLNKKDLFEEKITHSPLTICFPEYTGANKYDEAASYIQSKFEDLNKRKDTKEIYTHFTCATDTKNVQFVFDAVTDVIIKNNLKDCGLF
UniProt P43250, 456-475: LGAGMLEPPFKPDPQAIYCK
UniProt Q9BQ67, 263-287: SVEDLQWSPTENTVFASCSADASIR
UniProt P49915: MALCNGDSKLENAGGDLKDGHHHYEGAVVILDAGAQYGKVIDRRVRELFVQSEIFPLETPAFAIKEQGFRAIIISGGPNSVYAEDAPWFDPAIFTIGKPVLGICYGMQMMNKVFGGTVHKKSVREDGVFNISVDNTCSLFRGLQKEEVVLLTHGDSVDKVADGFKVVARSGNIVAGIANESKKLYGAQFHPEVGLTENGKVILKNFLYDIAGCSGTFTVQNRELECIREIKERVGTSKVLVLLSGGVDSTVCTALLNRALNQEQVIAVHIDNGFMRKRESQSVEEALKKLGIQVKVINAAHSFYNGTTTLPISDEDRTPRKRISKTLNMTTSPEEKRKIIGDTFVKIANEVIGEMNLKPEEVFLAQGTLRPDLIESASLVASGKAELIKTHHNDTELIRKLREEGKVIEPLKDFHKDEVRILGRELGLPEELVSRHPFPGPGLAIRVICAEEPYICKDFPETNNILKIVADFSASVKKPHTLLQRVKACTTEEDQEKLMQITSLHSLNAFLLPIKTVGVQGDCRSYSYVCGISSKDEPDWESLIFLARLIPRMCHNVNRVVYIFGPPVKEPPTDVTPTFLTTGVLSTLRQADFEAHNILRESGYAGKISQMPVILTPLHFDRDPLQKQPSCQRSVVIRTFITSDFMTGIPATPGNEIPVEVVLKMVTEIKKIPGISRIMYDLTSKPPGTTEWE
UniProt P48637: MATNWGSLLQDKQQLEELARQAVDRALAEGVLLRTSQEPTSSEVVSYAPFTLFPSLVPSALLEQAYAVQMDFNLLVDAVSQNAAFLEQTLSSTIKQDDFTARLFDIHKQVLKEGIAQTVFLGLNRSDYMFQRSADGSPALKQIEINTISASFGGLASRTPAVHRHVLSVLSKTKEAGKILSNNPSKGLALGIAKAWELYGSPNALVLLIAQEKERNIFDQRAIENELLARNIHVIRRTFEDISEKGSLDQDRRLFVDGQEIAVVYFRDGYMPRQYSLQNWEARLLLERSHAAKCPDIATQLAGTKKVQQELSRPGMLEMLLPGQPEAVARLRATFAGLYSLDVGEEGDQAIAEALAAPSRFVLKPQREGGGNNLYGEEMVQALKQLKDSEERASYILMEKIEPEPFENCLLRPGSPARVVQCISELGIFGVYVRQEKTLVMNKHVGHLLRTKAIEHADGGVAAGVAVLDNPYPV
UniProt Q9Y2X7, 559-582: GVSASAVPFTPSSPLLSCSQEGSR
UniProt P62993: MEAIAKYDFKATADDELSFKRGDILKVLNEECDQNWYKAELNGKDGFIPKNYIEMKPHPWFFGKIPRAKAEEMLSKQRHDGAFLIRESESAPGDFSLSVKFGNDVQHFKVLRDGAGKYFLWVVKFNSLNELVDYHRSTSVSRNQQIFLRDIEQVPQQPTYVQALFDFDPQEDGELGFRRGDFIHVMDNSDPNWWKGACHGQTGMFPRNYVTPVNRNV
UniProt Q92917, 453-476: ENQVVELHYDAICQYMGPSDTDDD

Experiments:
[1] = compound: ClCC(=O)N[C@@H]1CCCc2ccccc12; experiment: log2 mean competition ratio of IA-DTB cysteine labelling (DMSO/compound) (log2 ratio); higher = stronger cysteine engagement by compound; conditions: treatment time: 4 h, cell line lysate: HEK293T
Method: (§1)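 IA-DTB competitive cysteine chemoproteomics in HEK293T RIPA lysate. Lysates were treated with compound 29 or 30 at 50 or 200 µM for 4 h, then IA-DTB (500 µM, 1 h), trypsin-digested, NeutrAvidin-enriched and analysed by diaPASEF. Competition ratio = intensity DMSO / intensity compound (n=4 treated, n=64 DMSO); binding: mean log2 CR ≥ 1 and p ≤ 0.05 plus QC filters. Target is the cysteine site.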

[2] = compound: ClCC(=O)N[C@H]1CCCc2ccccc12; experiment: as above; conditions: treatment time: 4 h, cell line lysate: HEK293T
Method: as §1

GCN1 C2558 (UniProt Q92616)
log2 mean competition ratio ([1]; 50 µM): 0.00373
log2 mean competition ratio ([1]; 200 µM): 0.02
log2 mean competition ratio ([2]; 50 µM): -0.177
log2 mean competition ratio ([2]; 200 µM): -0.0281

GEMIN8 C180 (UniProt Q9NWZ8)
log2 mean competition ratio ([1]; 50 µM): 0.226
log2 mean competition ratio ([1]; 200 µM): 0.276
log2 mean competition ratio ([2]; 50 µM): -0.194
log2 mean competition ratio ([2]; 200 µM): 0.102

GOLGA4 C1729 (UniProt Q13439)
log2 mean competition ratio ([1]; 50 µM): -0.317
log2 mean competition ratio ([1]; 200 µM): -0.119
log2 mean competition ratio ([2]; 50 µM): 0.244
log2 mean competition ratio ([2]; 200 µM): -0.23

GBF1 C613 (UniProt Q92538)
log2 mean competition ratio ([1]; 50 µM): 0.128
log2 mean competition ratio ([1]; 200 µM): 0.0677
log2 mean competition ratio ([2]; 50 µM): 0.107
log2 mean competition ratio ([2]; 200 µM): 0.0811

GLE1 C528 (UniProt Q53GS7)
log2 mean competition ratio ([1]; 50 µM): 0.452
log2 mean competition ratio ([1]; 200 µM): 0.674
log2 mean competition ratio ([2]; 50 µM): 0.141
log2 mean competition ratio ([2]; 200 µM): 0.761

GGCX C323 (UniProt P38435)
log2 mean competition ratio ([1]; 50 µM): -0.306
log2 mean competition ratio ([1]; 200 µM): -0.0452
log2 mean competition ratio ([2]; 50 µM): -0.339
log2 mean competition ratio ([2]; 200 µM): -0.00184

GOLGA2 C205 (UniProt Q08379)
log2 mean competition ratio ([1]; 50 µM): -0.245
log2 mean competition ratio ([1]; 200 µM): 0.0723
log2 mean competition ratio ([2]; 50 µM): -0.028
log2 mean competition ratio ([2]; 200 µM): -0.0759

GMPPB C149 (UniProt Q9Y5P6)
log2 mean competition ratio ([1]; 50 µM): 0.0572
log2 mean competition ratio ([1]; 200 µM): -0.247
log2 mean competition ratio ([2]; 50 µM): 0.234
log2 mean competition ratio ([2]; 200 µM): -0.15

GPRIN3 C434
log2 mean competition ratio ([1]; 50 µM): -0.0251
log2 mean competition ratio ([1]; 200 µM): -0.255
log2 mean competition ratio ([2]; 50 µM): 0.232
log2 mean competition ratio ([2]; 200 µM): -0.195

GSTCD C140 (UniProt Q8NEC7)
log2 mean competition ratio ([1]; 50 µM): 0.699
log2 mean competition ratio ([1]; 200 µM): 0.241
log2 mean competition ratio ([2]; 50 µM): 0.505
log2 mean competition ratio ([2]; 200 µM): 0.187

GPC1 C343 (UniProt P35052)
log2 mean competition ratio ([1]; 50 µM): 0.164
log2 mean competition ratio ([1]; 200 µM): 0.308
log2 mean competition ratio ([2]; 50 µM): 0.145
log2 mean competition ratio ([2]; 200 µM): 0.299

GCN1 C2015 (UniProt Q92616)
log2 mean competition ratio ([1]; 50 µM): 0.252
log2 mean competition ratio ([1]; 200 µM): 0.00749
log2 mean competition ratio ([2]; 50 µM): 0.0864
log2 mean competition ratio ([2]; 200 µM): -0.0489

GPD2 C188 (UniProt P43304)
log2 mean competition ratio ([1]; 50 µM): -0.0222
log2 mean competition ratio ([1]; 200 µM): -0.379
log2 mean competition ratio ([2]; 50 µM): -0.715
log2 mean competition ratio ([2]; 200 µM): -0.291

GRPEL2 C87 (UniProt Q8TAA5)
log2 mean competition ratio ([1]; 50 µM): 0.0471
log2 mean competition ratio ([1]; 200 µM): 0.0162
log2 mean competition ratio ([2]; 50 µM): 0.17
log2 mean competition ratio ([2]; 200 µM): 0.171

GPATCH2 C245 (UniProt Q9NW75)
log2 mean competition ratio ([1]; 50 µM): -0.2
log2 mean competition ratio ([1]; 200 µM): 0.0484
log2 mean competition ratio ([2]; 50 µM): -0.0381
log2 mean competition ratio ([2]; 200 µM): 0.171

GPSM1 C616 (UniProt Q86YR5)
log2 mean competition ratio ([1]; 50 µM): 0.0375
log2 mean competition ratio ([1]; 200 µM): 0.0559
log2 mean competition ratio ([2]; 50 µM): -0.328
log2 mean competition ratio ([2]; 200 µM): -0.0206

GNPNAT1 C128 (UniProt Q96EK6)
log2 mean competition ratio ([1]; 50 µM): -0.296
log2 mean competition ratio ([1]; 200 µM): 0.126
log2 mean competition ratio ([2]; 50 µM): 0.065
log2 mean competition ratio ([2]; 200 µM): 0.104

GNPAT C73 (UniProt O15228)
log2 mean competition ratio ([1]; 50 µM): 0.0298
log2 mean competition ratio ([1]; 200 µM): -0.237
log2 mean competition ratio ([2]; 50 µM): -0.273
log2 mean competition ratio ([2]; 200 µM): -0.301

GGNBP2 C236 (UniProt Q9H3C7)
log2 mean competition ratio ([1]; 50 µM): -0.158
log2 mean competition ratio ([1]; 200 µM): 0.0481
log2 mean competition ratio ([2]; 50 µM): -0.437
log2 mean competition ratio ([2]; 200 µM): 0.222

GNAI2 C66 (UniProt P04899)
log2 mean competition ratio ([1]; 50 µM): -0.255
log2 mean competition ratio ([1]; 200 µM): 0.161
log2 mean competition ratio ([2]; 50 µM): -0.296
log2 mean competition ratio ([2]; 200 µM): 0.14

GRK6 C42 (UniProt P43250)
log2 mean competition ratio ([1]; 50 µM): -0.488
log2 mean competition ratio ([1]; 200 µM): 0.331
log2 mean competition ratio ([2]; 50 µM): 0.245
log2 mean competition ratio ([2]; 200 µM): 0.205

GLCCI1 C423 (UniProt Q86VQ1)
log2 mean competition ratio ([1]; 50 µM): 0.00478
log2 mean competition ratio ([1]; 200 µM): 0.0697
log2 mean competition ratio ([2]; 50 µM): 0.0698
log2 mean competition ratio ([2]; 200 µM): 0.285

GGA2 C343 (UniProt Q9UJY4)
log2 mean competition ratio ([1]; 50 µM): 0.184
log2 mean competition ratio ([1]; 200 µM): 0.277
log2 mean competition ratio ([2]; 50 µM): 0.399
log2 mean competition ratio ([2]; 200 µM): 0.397

GRK6 C474 (UniProt P43250)
log2 mean competition ratio ([1]; 50 µM): 0.0365
log2 mean competition ratio ([1]; 200 µM): 0.252
log2 mean competition ratio ([2]; 50 µM): -0.406
log2 mean competition ratio ([2]; 200 µM): 0.0357

GNL3L C244 (UniProt Q9NVN8)
log2 mean competition ratio ([1]; 50 µM): 0.104
log2 mean competition ratio ([1]; 200 µM): 0.257
log2 mean competition ratio ([2]; 50 µM): -0.129
log2 mean competition ratio ([2]; 200 µM): 0.126

GOLIM4 C6
log2 mean competition ratio ([1]; 50 µM): -0.144
log2 mean competition ratio ([1]; 200 µM): 0.101
log2 mean competition ratio ([2]; 50 µM): 0.189
log2 mean competition ratio ([2]; 200 µM): 0.143

GRWD1 C280 (UniProt Q9BQ67)
log2 mean competition ratio ([1]; 50 µM): -0.328
log2 mean competition ratio ([1]; 200 µM): 0.117
log2 mean competition ratio ([2]; 50 µM): 0.137
log2 mean competition ratio ([2]; 200 µM): 0.0392

GCLM C72 (UniProt P48507)
log2 mean competition ratio ([1]; 50 µM): -0.344
log2 mean competition ratio ([1]; 200 µM): 0.0366
log2 mean competition ratio ([2]; 50 µM): -0.501
log2 mean competition ratio ([2]; 200 µM): 0.0352

GON4L C1723 (UniProt Q3T8J9)
log2 mean competition ratio ([1]; 50 µM): -0.528
log2 mean competition ratio ([2]; 50 µM): -0.103
log2 mean competition ratio ([2]; 200 µM): 0.384

GPATCH8 C882 (UniProt Q9UKJ3)
log2 mean competition ratio ([1]; 50 µM): -0.0686
log2 mean competition ratio ([1]; 200 µM): -0.249
log2 mean competition ratio ([2]; 50 µM): 0.0431
log2 mean competition ratio ([2]; 200 µM): -0.119

GLG1 C419 (UniProt Q92896)
log2 mean competition ratio ([1]; 50 µM): -0.273
log2 mean competition ratio ([1]; 200 µM): 0.298
log2 mean competition ratio ([2]; 50 µM): 0.221
log2 mean competition ratio ([2]; 200 µM): 0.286

GPRIN1 C778 (UniProt Q7Z2K8)
log2 mean competition ratio ([1]; 50 µM): -0.0947
log2 mean competition ratio ([1]; 200 µM): -0.0459
log2 mean competition ratio ([2]; 50 µM): -0.159
log2 mean competition ratio ([2]; 200 µM): -0.0747

GPR108 C104 (UniProt Q9NPR9)
log2 mean competition ratio ([1]; 50 µM): -0.0586
log2 mean competition ratio ([1]; 200 µM): -0.254
log2 mean competition ratio ([2]; 50 µM): -0.351
log2 mean competition ratio ([2]; 200 µM): -0.0962

GFM2 C248 (UniProt Q969S9)
log2 mean competition ratio ([1]; 50 µM): 0.122
log2 mean competition ratio ([1]; 200 µM): 0.174
log2 mean competition ratio ([2]; 50 µM): -0.298
log2 mean competition ratio ([2]; 200 µM): 0.103

GMPS C489 (UniProt P49915)
log2 mean competition ratio ([1]; 50 µM): -0.109
log2 mean competition ratio ([1]; 200 µM): -0.146
log2 mean competition ratio ([2]; 50 µM): -0.139
log2 mean competition ratio ([2]; 200 µM): -0.202

GSS C409 (UniProt P48637)
log2 mean competition ratio ([1]; 50 µM): -0.11
log2 mean competition ratio ([1]; 200 µM): 0.364
log2 mean competition ratio ([2]; 50 µM): -0.274
log2 mean competition ratio ([2]; 200 µM): 0.0864

GIT1 C576 (UniProt Q9Y2X7)
log2 mean competition ratio ([1]; 50 µM): -0.00539
log2 mean competition ratio ([1]; 200 µM): 0.102
log2 mean competition ratio ([2]; 50 µM): 0.346
log2 mean competition ratio ([2]; 200 µM): 0.0653

GNG4 C28
log2 mean competition ratio ([1]; 50 µM): -0.0384
log2 mean competition ratio ([1]; 200 µM): 0.0991
log2 mean competition ratio ([2]; 50 µM): -0.0623
log2 mean competition ratio ([2]; 200 µM): 0.329

GSK3A C281 (UniProt P49840)
log2 mean competition ratio ([1]; 50 µM): 0.0226
log2 mean competition ratio ([1]; 200 µM): -0.137
log2 mean competition ratio ([2]; 50 µM): 0.248
log2 mean competition ratio ([2]; 200 µM): -0.101

GNPAT C650 (UniProt O15228)
log2 mean competition ratio ([1]; 50 µM): -0.262
log2 mean competition ratio ([1]; 200 µM): -0.277
log2 mean competition ratio ([2]; 50 µM): 0.271
log2 mean competition ratio ([2]; 200 µM): -0.351

GRB2 C32 (UniProt P62993)
log2 mean competition ratio ([1]; 50 µM): 0.013
log2 mean competition ratio ([1]; 200 µM): 0.0448
log2 mean competition ratio ([2]; 50 µM): 0.291
log2 mean competition ratio ([2]; 200 µM): 0.0896

GPKOW C465 (UniProt Q92917)
log2 mean competition ratio ([1]; 50 µM): -0.368
log2 mean competition ratio ([1]; 200 µM): 0.175
log2 mean competition ratio ([2]; 50 µM): -0.328
log2 mean competition ratio ([2]; 200 µM): 0.416

GOLGB1 C1713 (UniProt Q14789)
log2 mean competition ratio ([1]; 200 µM): -0.256
log2 mean competition ratio ([2]; 50 µM): -0.095
log2 mean competition ratio ([2]; 200 µM): -0.39
